Assay results from paper PMC9392644.
No constants are given. Whether binding was seen depends on the method and setting. In cells and extracts the contact can be indirect. Some entries that bind do so weakly or less than the wild type. Sequences can lack the tags named with a protein.

Amino acid sequences for entries named in this document (tags omitted).
UniProt P05412: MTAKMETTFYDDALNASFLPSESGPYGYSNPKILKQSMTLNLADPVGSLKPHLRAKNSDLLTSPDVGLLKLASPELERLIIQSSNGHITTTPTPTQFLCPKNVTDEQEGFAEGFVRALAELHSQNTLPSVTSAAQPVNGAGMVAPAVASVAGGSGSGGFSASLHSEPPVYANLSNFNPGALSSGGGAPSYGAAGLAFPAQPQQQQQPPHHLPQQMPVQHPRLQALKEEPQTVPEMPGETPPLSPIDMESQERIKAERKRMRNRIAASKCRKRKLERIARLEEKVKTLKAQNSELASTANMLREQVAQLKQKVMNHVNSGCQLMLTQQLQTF

Target: T1, His-tagged UHRF1 (ubiquitin-like with PHD and ring-finger domain 1) (human) (UniProt Q96T88)
T1 sequence: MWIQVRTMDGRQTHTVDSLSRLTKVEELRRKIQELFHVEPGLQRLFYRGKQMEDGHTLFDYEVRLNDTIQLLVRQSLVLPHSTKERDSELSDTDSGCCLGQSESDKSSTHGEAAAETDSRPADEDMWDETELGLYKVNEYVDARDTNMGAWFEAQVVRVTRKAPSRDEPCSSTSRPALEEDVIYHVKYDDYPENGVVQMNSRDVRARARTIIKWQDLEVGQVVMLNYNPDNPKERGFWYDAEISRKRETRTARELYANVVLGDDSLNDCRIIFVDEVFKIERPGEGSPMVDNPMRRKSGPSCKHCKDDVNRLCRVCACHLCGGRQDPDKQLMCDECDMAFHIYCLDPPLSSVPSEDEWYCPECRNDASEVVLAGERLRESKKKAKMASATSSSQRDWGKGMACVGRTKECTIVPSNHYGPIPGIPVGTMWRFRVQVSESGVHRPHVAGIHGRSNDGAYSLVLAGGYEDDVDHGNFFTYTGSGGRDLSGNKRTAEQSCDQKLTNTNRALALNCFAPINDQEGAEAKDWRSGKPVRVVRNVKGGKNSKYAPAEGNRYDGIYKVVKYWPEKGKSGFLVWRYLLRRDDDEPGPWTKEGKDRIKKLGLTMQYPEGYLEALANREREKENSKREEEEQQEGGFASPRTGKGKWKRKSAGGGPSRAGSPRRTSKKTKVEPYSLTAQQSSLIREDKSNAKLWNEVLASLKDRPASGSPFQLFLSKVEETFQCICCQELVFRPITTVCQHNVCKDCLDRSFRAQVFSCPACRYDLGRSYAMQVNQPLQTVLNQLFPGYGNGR
Experiment: co-IP; BCPAP cells cotransfected with His-tagged UHRF1 and Flag-tagged c-Jun; IP lysis buffer (20 mM Tris-HCl pH 8.0, 150 mM NaCl, 0.5% NP-40, 10% glycerol); lysate incubated with His-tag or Flag-tag antibody 3 h at 4°C, then Protein A/G beads 16 h at 4°C; bound proteins detected with His-tag or Flag-tag antibodies

binding: binds
Substance: Flag-tagged c-Jun/AP-1 (from UniProt P05412 1-331)
